The nature of the assay: qHTS Assay for Lipid Storage Modulators in Drosophila S3 Cells.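 On cell number change: cells counted by Cell Tracker Red CMTPX staining in the red channel.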 Particulars: BODIPY lipid droplet fluorescence, 18-24 h; for cell number change: measured here: cell count max response, cells fed with added oleic acid. The method, boiled down:
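Laser-scanning cytometry quantifies lipid droplet accumulation (500–530 nm total intensity; droplet/cell object ratio) in oleic acid-fed (400 uM added) Drosophila S3 cells treated with a concentration series. 20 uM Triacsin C defined 100% inhibition.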

Setting [1] is: measured here: lipid fluorescence (Fed channel) AC50, cells fed with added oleic acid.
The mark [2] stands for this setting: measured here: cell number channel AC50, cells fed with added oleic acid.

Data on 39 molecules can be found in PubChem BioAssay AID2685 (National Center for Advancing Translational Sciences (NCATS), 2010).

The structures appear in SMILES notation. The list shows a part of the results. The main result of the screen is listed elsewhere. These columns were measured beside it and carry no call. Compounds called inactive in the main read-out are mostly missing here. Potencies come from curve fits of mixed quality, noted in brackets.

What is called AC50 is the concentration giving half of the maximal activity seen. Read a low AC50 as greater potency.

Regarding `COc1ccccc1NC(=O)Nc1cc(C(C)C)ccc1C`, the cell number change is -11.5%. Moreover, the AC50 under setting [1] was 4.11 µM [falling, full curve].

Turning to `CC1(C)CC(=O)c2cnc(N3CCN(c4ccccc4)CC3)nc2C1`, the cell number change was found to be 14%. Besides, under setting [1], the AC50 is 3.66 µM [rising, partial curve].

As for `CCCCn1c(SCC(=O)Nc2cc(C)[nH]n2)nc2ccsc2c1=O`, the cell number change was -17.4%. For the same molecule, under setting [1], the AC50 was 0.116 µM [falling, partial curve, poor fit].

For the molecule `CC(=O)NCCc1ccc(S(=O)(=O)N(C)C2CCS(=O)(=O)C2)cc1` (stereo not drawn), the cell number change is -3.86%. Moreover, the AC50 under setting [1] was 3.66 µM [falling, single point].

Turning to `NC(=O)CC(NC(=O)Cc1cccc2ccccc12)c1ccc(N2CCC(Cc3ccccc3)CC2)c([N+](=O)[O-])c1` (stereo not drawn), the cell number change was determined as 10.7%.

With `C=CCNC(=O)CSc1nc2cc(C(=O)OCC)ccc2n1CC`, the cell number change is -3.64%. Also, under setting [1], the AC50 is 0.259 µM [rising, full curve, poor fit].

Consider `CC(C)CCNC(=O)CNC(=S)N(Cc1ccccc1)Cc1cccnc1`, for which the cell number change was -13.7%. Besides, the AC50 under setting [1] is 0.058 µM [rising, full curve, poor fit].

As for `CCOC(=O)c1c(C)[nH]c(C(=O)OCC(=O)NC(C)(C)C)c1C`, the AC50 under setting [1] is 0.103 µM [rising, single point].

Regarding `COc1cc(C(=O)NCc2cccnc2)ccc1OCC(=O)Nc1cccc(C(F)(F)F)c1`, the cell number change is -0.757%. Further, under setting [1], the AC50 was 29.1 µM [falling, single point].

In the case of `Brc1cnc(N2CCCC2)nc1N1CCCCC1`, the cell number change came out at 54.5%. Moreover, the AC50 under setting [2] is 13 µM [rising, partial curve, poor fit].

With `Cc1cc(C)cc(OC(C)C(=O)Nc2ccc(S(=O)(=O)Nc3cc(C)nc(C)n3)cc2)c1` (stereo not drawn), the cell number change was determined as 17.4%. In addition, the AC50 under setting [1] was 6.51 µM [rising, single point].

With `CN(CCOc1ccc(Cl)c(Cl)c1)Cc1ccccc1`, the cell number change was -27%.

In the case of `CCOc1cc2[nH]c(=S)n(C(C)C)c(=O)c2cc1OCC`, the cell number change is -35.9%. The AC50 under setting [2] is 13 µM [falling, single point]. Besides, the AC50 under setting [1] is 16.4 µM [falling, single point].

As to `Cc1ccc(C)c(S(=O)(=O)N2CCN(C(=O)C3CCN(c4ncnc5sc(C)c(C)c45)CC3)CC2)c1`, the cell number change stood at 62%. Also, under setting [2], the AC50 was 1.3 µM [rising, full curve].

On to `CC1(C)CN(c2ccccc2)N(C(=O)c2ccc(C#N)cc2)C1=O`, for which the AC50 under setting [1] was 29.1 µM [rising, single point].

On to `O=C(Cc1ccccc1F)Nc1cc(S(=O)(=O)N2CCOCC2)ccc1N1CCOCC1`, for which the cell number change came to 5.83%.

Regarding `CCc1cc(=O)oc2c3c(cc(OCC(=O)NCCN4CCOCC4)c12)OC(C)(C)CC3`, the cell number change was 11.5%. Besides, under setting [1], the AC50 is 29.1 µM [falling, single point].

Regarding `CCOc1ccc(C2/C(=C(\O)c3ccc4c(c3)OCCO4)C(=O)C(=O)N2Cc2cccnc2)cc1OCC` (stereo not drawn), the cell number change was 26.3%. Also, under setting [2], the AC50 is 0.00411 µM [rising, full curve, poor fit]. For the same molecule, the AC50 under setting [1] was 29.1 µM [falling, single point].

Turning to `COc1cc(-c2nc3oc4ccccc4c(=O)c3c(=O)n2Cc2ccco2)cc(OC)c1OC`, the cell number change is -17.7%. In addition, the AC50 under setting [1] is 1.84 µM [rising, full curve].

For `O=C(NCCc1ccccn1)c1cncc(Br)c1`, the cell number change turned out to be 13.9%.

For `CC(C)N1CC(C(=O)O)CC1=O` (stereo not drawn), the cell number change was -40.1%. For the same molecule, the concentration at half-maximal activity (AC50) under setting [2] was 3.26 µM [falling, partial curve, poor fit]. Further, under setting [1], the AC50 is 1.46 µM [falling, partial curve].

For the molecule `CCCCN(Cc1cc2cc(OC)ccc2[nH]c1=O)C(=O)c1ccco1`, the AC50 by setting is: under setting [2], 6.51 µM [rising, single point]; under setting [1], 2.91 µM [rising, partial curve].

Take `CS(=O)(=O)c1ccccc1-c1nnc(NC(=O)Cc2ccccc2)o1`: the cell number change was -9.35%. The AC50 under setting [1] is 29.1 µM [rising, single point].

Take `COc1ccc(-c2nc(N)n[nH]2)cc1OC`: the cell number change is -14%. Further, under setting [2], the AC50 was 0.116 µM [falling, full curve, poor fit]. The AC50 under setting [1] is 29.1 µM [falling, single point].

With `COc1ccccc1-c1cc(C(=O)Nc2sc3c(c2C#N)CCC(C)C3)c2ccccc2n1` (stereo not drawn), the cell number change was found to be 33.9%. Moreover, the AC50 under setting [2] is 16.4 µM [rising, single point].

Regarding `CC(NC(=O)c1ccccc1)c1ccc(F)cc1` (stereo not drawn), the cell number change was -25.7%. Further, the AC50 under setting [2] is 1.16 µM [falling, full curve, poor fit]. Besides, the AC50 under setting [1] is 0.461 µM [falling, full curve, poor fit].

For the molecule `Cc1ccc(C(=O)NNS(=O)(=O)c2ccc(F)cc2)cc1`, the cell number change was 1.62%.

For the molecule `S=C(Nc1ccc(Oc2ccccc2)cc1)N1CCN(c2ccccn2)CC1`, the cell number change was -13.8%. For the same molecule, under setting [1], the AC50 is 29.1 µM [falling, single point].

With `CC(C)N1CCN(Cc2ccsc2)CC1CCO` (stereo not drawn), the cell number change was -12.9%. The AC50 under setting [2] is 0.0461 µM [falling, full curve, poor fit].

As for `CCC(Oc1ccc2c(c1)C(=O)CC(C)(C)O2)C(=O)NCCN1CCCCCC1` (stereo not drawn), the cell number change was 28.5%. For the same molecule, the AC50 under setting [2] was 1.46 µM [rising, full curve, poor fit]. Also, the AC50 under setting [1] is 0.259 µM [rising, full curve].

As for `O=C(COC(=O)CC(c1ccccc1)c1ccccc1)Nc1c(F)cccc1F`, the cell number change was 42%. The AC50 under setting [2] is 16.4 µM [rising, single point]. Moreover, under setting [1], the AC50 was 29.1 µM [rising, single point].

In the case of `CN(C)c1ccc(/C=C(\C#N)C(=O)c2ccccc2)cc1`, the cell number change was -18.5%.

Consider `O=C(NCc1cccs1)C1CCN(c2ccc(S(=O)(=O)N3CCOCC3)cc2Cl)CC1`, for which the cell number change worked out at 0.209%.

For the molecule `Cc1ccccc1OCCC(=O)OCC(=O)NCCc1ccccc1`, the cell number change is -12%.

Turning to `COc1ccccc1/C=C/C(=O)OCC(=O)N1CCN(S(=O)(=O)c2ccc(C)cc2C)CC1`, the cell number change came to 7.63%.

Consider `CC(C)CC(COCc1ccc(Cl)cc1)N1CCN(C(=O)c2cccc(C(F)(F)F)c2)CCC1=O` (stereo not drawn), for which the AC50 under setting [1] is 0.00651 µM [falling, full curve, poor fit].

Turning to `CS(=O)(=O)N(CCc1ccccc1)CC(=O)NCc1ccncc1`, the cell number change was -67.5%. Under setting [2], the AC50 was 25.9 µM [falling, partial curve].

Turning to `CCN(CC)CCNC(=O)C12CC3CC(CC(C3)C1)C2`, the cell number change is -90.6%. Under setting [2], the AC50 is 29.1 µM [falling, single point].

Take `CCCCCc1nnc(NC(=O)C(=O)OCC)s1`: the cell number change is -50.2%. Further, the AC50 under setting [1] was 29.1 µM [falling, single point].
